{"sequences": {"note": "Sequences of proteins named here, by UniProt entry; tags and fusion partners are left off. A change or cut given only in a name is not applied to a line headed by its entry.", "UniProt Q8VEJ9": "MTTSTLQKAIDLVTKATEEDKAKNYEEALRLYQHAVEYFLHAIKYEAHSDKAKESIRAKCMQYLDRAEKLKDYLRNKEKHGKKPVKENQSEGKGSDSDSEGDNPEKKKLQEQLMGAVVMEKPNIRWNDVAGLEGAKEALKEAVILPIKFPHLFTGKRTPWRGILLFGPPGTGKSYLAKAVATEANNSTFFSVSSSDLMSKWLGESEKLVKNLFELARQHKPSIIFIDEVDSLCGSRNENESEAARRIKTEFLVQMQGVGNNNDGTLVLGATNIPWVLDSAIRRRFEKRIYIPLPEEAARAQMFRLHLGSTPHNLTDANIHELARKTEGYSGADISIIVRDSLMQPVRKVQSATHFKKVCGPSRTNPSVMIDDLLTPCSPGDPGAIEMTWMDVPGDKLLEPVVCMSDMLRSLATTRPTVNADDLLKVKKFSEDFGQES", "UniProt Q8VBX0": "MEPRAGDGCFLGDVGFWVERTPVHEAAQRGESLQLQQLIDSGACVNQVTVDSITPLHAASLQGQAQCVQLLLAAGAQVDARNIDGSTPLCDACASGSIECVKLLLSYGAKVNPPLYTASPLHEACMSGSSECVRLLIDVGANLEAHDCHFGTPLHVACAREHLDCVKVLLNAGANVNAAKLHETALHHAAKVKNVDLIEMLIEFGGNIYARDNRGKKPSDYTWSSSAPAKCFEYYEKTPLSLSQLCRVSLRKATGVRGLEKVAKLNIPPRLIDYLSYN", "UniProt Q8VDY9": "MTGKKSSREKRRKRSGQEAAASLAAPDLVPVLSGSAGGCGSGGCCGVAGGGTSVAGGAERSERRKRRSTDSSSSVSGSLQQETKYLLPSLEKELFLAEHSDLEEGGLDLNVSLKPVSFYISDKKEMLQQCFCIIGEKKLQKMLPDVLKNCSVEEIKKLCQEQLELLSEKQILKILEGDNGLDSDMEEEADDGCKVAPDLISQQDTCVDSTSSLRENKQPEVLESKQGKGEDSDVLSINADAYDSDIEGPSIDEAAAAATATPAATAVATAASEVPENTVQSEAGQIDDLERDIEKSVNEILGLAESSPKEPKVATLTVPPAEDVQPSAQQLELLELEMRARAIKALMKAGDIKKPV", "UniProt Q8VDD5, whole entry": "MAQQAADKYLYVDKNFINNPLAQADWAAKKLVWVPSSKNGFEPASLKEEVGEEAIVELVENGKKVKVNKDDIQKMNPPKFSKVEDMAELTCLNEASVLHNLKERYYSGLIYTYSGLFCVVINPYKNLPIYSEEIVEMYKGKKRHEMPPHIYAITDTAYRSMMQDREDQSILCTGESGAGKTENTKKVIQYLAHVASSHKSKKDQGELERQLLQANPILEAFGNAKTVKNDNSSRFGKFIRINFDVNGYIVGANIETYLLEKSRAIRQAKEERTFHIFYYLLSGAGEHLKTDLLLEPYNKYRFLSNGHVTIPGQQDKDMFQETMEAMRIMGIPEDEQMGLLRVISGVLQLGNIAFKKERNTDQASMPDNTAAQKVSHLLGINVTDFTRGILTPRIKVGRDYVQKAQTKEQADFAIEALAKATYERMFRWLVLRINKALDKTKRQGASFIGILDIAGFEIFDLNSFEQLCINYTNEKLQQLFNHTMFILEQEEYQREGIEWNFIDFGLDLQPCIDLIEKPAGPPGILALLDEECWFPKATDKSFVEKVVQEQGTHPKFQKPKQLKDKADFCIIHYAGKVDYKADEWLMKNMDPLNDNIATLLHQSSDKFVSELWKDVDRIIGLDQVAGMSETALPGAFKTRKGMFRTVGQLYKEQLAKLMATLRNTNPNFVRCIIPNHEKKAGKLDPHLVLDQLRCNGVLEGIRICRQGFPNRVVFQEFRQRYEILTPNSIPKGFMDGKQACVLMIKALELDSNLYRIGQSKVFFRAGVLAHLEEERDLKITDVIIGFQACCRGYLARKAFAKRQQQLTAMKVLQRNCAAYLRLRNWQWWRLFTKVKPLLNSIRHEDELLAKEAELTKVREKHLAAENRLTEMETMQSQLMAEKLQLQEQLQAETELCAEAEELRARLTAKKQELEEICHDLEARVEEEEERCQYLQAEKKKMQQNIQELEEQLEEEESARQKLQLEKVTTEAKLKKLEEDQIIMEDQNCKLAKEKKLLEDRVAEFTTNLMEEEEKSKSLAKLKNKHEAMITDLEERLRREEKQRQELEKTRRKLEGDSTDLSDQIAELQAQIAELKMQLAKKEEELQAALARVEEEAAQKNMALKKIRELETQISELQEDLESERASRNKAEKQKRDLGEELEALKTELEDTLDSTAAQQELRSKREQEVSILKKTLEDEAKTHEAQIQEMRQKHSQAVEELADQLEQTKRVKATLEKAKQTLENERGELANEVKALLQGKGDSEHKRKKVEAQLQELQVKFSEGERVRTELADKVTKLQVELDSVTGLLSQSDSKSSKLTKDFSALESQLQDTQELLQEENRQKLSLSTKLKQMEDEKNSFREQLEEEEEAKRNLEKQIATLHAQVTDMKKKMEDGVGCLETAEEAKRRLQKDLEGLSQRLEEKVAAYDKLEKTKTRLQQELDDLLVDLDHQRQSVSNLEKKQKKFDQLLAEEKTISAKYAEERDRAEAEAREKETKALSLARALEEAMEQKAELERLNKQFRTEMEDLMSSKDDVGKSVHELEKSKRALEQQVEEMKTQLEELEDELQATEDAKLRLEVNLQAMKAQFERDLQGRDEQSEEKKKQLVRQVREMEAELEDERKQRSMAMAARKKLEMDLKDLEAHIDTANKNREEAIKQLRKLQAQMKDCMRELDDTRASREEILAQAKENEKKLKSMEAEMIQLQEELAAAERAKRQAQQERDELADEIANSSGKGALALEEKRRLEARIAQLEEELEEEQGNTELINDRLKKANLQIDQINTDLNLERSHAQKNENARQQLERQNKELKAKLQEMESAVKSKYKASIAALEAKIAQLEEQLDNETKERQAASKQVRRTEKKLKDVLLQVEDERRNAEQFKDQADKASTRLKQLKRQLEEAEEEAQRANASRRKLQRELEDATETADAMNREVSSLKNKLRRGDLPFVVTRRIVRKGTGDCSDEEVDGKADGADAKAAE", "UniProt Q8VC34": "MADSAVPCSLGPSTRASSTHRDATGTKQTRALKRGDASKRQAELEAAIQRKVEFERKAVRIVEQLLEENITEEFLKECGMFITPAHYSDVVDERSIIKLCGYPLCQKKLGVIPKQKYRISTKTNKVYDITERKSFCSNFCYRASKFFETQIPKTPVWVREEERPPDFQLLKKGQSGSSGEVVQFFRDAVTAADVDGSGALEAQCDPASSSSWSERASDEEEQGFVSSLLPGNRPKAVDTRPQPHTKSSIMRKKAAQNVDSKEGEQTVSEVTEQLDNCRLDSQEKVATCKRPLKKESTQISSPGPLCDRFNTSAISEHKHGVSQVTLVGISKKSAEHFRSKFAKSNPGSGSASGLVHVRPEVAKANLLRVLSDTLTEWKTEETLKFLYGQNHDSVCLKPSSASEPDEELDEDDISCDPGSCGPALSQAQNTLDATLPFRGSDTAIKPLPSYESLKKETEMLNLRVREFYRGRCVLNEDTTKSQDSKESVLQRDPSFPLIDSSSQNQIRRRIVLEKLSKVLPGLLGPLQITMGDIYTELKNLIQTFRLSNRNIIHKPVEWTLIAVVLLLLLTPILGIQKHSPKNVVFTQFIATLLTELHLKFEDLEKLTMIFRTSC", "UniProt Q8R550, whole entry": "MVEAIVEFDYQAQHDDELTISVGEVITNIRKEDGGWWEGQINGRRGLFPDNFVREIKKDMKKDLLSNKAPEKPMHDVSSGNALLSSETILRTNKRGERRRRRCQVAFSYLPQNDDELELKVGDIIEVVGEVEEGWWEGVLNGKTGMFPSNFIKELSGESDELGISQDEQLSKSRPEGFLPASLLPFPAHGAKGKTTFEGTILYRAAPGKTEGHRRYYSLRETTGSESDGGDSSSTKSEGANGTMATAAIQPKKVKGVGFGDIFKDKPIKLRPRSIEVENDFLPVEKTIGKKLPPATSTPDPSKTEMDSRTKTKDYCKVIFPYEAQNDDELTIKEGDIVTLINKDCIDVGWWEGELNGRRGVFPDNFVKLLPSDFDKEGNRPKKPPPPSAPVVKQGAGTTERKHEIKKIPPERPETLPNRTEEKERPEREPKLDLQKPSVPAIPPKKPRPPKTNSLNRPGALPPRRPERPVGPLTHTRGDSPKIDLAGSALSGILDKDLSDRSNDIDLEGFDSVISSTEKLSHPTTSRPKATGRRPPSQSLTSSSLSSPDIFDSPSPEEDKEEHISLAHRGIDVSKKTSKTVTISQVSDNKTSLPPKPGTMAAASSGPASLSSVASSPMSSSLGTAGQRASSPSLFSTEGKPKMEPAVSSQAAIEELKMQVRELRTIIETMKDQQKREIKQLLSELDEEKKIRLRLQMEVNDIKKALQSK"}, "source": "the supplement of paper PMC12819154", "about": "“High-throughput peptide-centric local stability assay extends protein–ligand identification to membrane proteins, tissues and bacteria” (Nature Structural & Molecular Biology, 2025)", "note": "Some of the results follow. Most values lie at the level of the controls, where differences are scatter.", "data": [{"compound": "CN[C@@H]1C[C@H]2O[C@@](C)([C@@H]1OC)n1c3ccccc3c3c4c(c5c6ccccc6n2c5c31)C(=O)NC4 [staurosporine]", "experiment": "log2 fold change of tryptic peptide abundance, ligand vs vehicle (limited proteolysis) (log2 ratio); higher = more trypsin-susceptible (destabilized)", "details": "ligand concentration: 20 uM; sample: mouse liver crude lysate; replicate design: treated separately", "values": [{"target": "UniProt Q8VEJ9 (peptide sequence: LHLGSTPHNLTDANIHELAR, peptide start residue: 305)", "log2 fold change": 0.132}, {"target": "UniProt Q8VBX0 (peptide sequence: LHETALHHAAK, peptide start residue: 181)", "log2 fold change": 0.318}, {"target": "UniProt Q8VDY9 (peptide sequence: ENKQPEVLESK, peptide start residue: 215)", "log2 fold change": -0.132}, {"target": "UniProt Q8VDD5 (peptide sequence: CQYLQAEKKK, peptide start residue: 931)", "log2 fold change": -0.693}, {"target": "UniProt Q8VC34 (peptide sequence: ESTQISSPGPLCDRFNTSAISEHK, peptide start residue: 295)", "log2 fold change": -0.31}, {"target": "UniProt Q8R550 (peptide sequence: APEKPMHDVSSGNALLSSETILR, peptide start residue: 69)", "log2 fold change": -0.413}]}]}
